# Laboratory results: US11028099B2, “NRF2 activators” (GLAXOSMITHKLINE INTELLECTUAL PROPERTY DEVELOPMENT LIMITED, priority 2016, dated 2021)
# The name of at least one read-out is uncertain.
# Assay: Dog PK study
# Format: in vivo
# Settings: result in words
# Protocol: One hundred nanoliters of 100× compound dose response curves (serial 3-fold dilutions) in DMSO are stamped using an Echo liquid handling system (Labcyte) into 384-well, low volume, black assay plates (Greiner, #784076), with DMSO in columns 6 and 18. The top concentration of compound is located in columns 1 and 13. All reagents are diluted in assay buffer (50 mM Tris, pH 8.0, 5 mM MgCl2, 100 mM NaCl, 0.005% BSA, 1 mM DTT, and 2 mM CHAPS). The BSA, DTT, and CHAPS are added to the assay buffer on the day of assay. Using a Multidrop Combi (Thermo Electron Corporation) equipped with a metal tip dispenser, 5 ul of 25 nM Keap1-FlagHis protein is added to all wells of the compound plate, with the exception of the wells in column 18. […] Plates are spun at 500 rpm for 1 minute, incubated for 1 hour at RT, and read on an Envision plate reader using a 320 nm excitation filter and 615 nm and 665 nm emission filters. Compound response (% inhibition) and potency (pIC50) are calculated based on the ratio of the two emissions (665 nm/615 nm) and then the transformed data is normalized against controls in the assay (control 1=1% DMSO in the presence of NRF2 and Keap1 protein and control 2=1% DMSO in the absence of protein). […] The % inhibition values are calculated from the ratio (transformed) data by the equation: 100−(100*(compound response−average control 2)/(average control 1−average control2)). […]
compound,measurement,value
"CC[C@@H]1CN(Cc2cc([C@@H](CC(=O)O)c3ccc4c(nnn4C)c3C)ccc2C)Cc2ncccc2O1 [(R)-3-(1,4-dimethyl-1H-benzo[d][1,2,3]triazol-5-yl)-3-(3-(((R)-2-ethyl-2,3-dihydropyrido[2,3-f][1,4]oxazepin-4(5H)-yl)methyl)-4-methylphenyl)propanoic acid]",oral bioavailability in dogs compared to the S-beta-stereocenter isomer,enhanced oral bioavailability in dogs
